Assay results as given in article PMC12036875, “Mitochondria-targeting natural product rhein conjugated with dichloroacetate as the dual inhibitor of glycolysis and oxidative phosphorylation to off energize cancer cells and induce ROS storm” (Theranostics, 2025).

What follows are compounds tested on 4T1 cells (assay: RNA sequencing and analysis (DEGs, GSEA)). Conditions: 6.25 μM, 12 h.
Assay type: cell-based, Mouse
Method: To understand the effect of Rhein-DCA conjugate on the energy flow of glycolysis in cancer cells, we performed RNA sequencing analysis on 4T1 cell lines to analyze the genome. After various treatments for 12 h, all samples were clustered via principal component analysis (PCA) (Figure S12). […] Furthermore, the DEGs involved in glycolysis pathway of kyoto encyclopedia of genes and genomes (KEGG) databases were analyzed (Figure 2G). […] But as a pyruvate analogue, DCA led to the inactivation of PDK1 by binding to the pyruvate-binding pocket of PDK1 protein, together with down-regulation of PDK1 gene, thus leading more prominent restraint of glycolysis.
We next investigated whether the OXPHOS route would be further undermined by Rhein-DCA conjugate when the glycolysis was blocked. […] Thus, it was imperative to simultaneously halt glycolysis and OXPHOS to induce energy obstruction and apoptosis.
4T1 cells were seeded in 10 cm culture dishes and cultured until the confluency reached approximately 80%. The cells were treated with PBS, DCA, rhein, and Rhein-DCA conjugate (at a concentration of 6.25 μM) for 12 h. After that, the cells were collected and suspended in TRIzol Reagent for RNA sequencing. All samples were sent to Shanghai Majorbio Bio-pharm Biotechnology Co., Ltd. (Shanghai, P. R. China) for detection. Total RNA was extracted from 4T1 cells and was measured using the nanodrop-2000. The quality of RNA was evaluated by agarose gel electrophoresis and analyzed with Agilent5300. cDNA libraries were constructed according to the Illumina stranded mRNA prep, Ligation (USA) protocol. The DNA was further enriched by PCR amplification and purified by 2% Low Range Ultra Agarose. Clusters were generated by Bridge PCR on the cBot after being quantified by Qubit 4.0, and sequenced with NovaSeq X Plus platform (PE150). The differential expression analysis of various gene expressions was performed using DESeq2. The GO functional enrichment and KEGG pathway analysis were conducted on Goatools and Python scipy software.

Row | SMILES | number of down-regulated genes (DEGs vs control) | number of up-regulated genes (DEGs vs control)
1 | O=C(O)c1cc(O)c2c(c1)C(=O)c1cccc(O)c1C2=O [Rhein, 4,5-dihydroxyanthraquinone-2-carboxylic acid] | 88 | 48
2 | O=C(O)C(Cl)Cl [DCA, Dichloroacetate] | 101 | 38
3 | O=C(OCCOC(=O)C(Cl)Cl)c1cc(O)c2c(c1)C(=O)c1cccc(O)c1C2=O [Rhein-DCA] | 1501 | 1563
